Results are given in words; binding and its absence hold for the method and conditions named. Binding seen in cells or lysates may run through a third protein. Some results given as binding are weak or reduced against the parent protein; the word gives no strength. For some assays here: Where a sequence is shown, tags or fusion partners need not be part of it.

Protein sequences, listed by entry. Tags and fused reporters are not part of them. Residues count along the entry.
UniProt P20029, residues 20-655: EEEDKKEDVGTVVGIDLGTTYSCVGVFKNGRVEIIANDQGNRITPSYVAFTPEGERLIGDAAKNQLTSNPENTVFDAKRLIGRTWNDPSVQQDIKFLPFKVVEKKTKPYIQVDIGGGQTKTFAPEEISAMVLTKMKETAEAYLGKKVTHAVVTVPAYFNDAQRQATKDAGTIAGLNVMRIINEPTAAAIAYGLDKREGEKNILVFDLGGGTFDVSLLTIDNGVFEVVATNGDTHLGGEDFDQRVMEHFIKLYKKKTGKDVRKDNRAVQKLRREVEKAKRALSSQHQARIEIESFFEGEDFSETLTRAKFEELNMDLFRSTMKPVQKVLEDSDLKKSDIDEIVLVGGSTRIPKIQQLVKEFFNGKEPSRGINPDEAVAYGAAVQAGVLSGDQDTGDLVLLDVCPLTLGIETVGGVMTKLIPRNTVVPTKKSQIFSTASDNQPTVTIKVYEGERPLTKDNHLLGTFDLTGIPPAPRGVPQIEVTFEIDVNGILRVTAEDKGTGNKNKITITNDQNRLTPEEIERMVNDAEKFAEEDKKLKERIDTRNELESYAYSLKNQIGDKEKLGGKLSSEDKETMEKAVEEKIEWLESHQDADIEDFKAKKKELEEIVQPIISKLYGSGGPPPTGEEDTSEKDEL

Two molecules from PMC12703938, “Positive modulation of sigma-1 receptor: a new weapon to mitigate disease progression in amyotrophic lateral sclerosis” (Translational Neurodegeneration, 2025) can be followed below.

Experiment [1] concerns the target Sigma-1 receptor tagged with YFP (S1R-YFP) (UniProt O55242). Nature of the experiment: co-IP; S1R-KO N2a cells expressing YFP or S1R-YFP; CHAPS lysis buffer (50 mM Tris pH 7.4, 150 mM NaCl, 0.5% CHAPS); anti-GFP rabbit or mouse antibody or normal IgG on Dynabeads Protein G, overnight at 4 °C; western blot for BiP, Keap1, NRF2 and S1R.
Experiment [2] has as its target T1, Sigma-1 receptor tagged with YFP (S1R-YFP), O55242.
T1 chain: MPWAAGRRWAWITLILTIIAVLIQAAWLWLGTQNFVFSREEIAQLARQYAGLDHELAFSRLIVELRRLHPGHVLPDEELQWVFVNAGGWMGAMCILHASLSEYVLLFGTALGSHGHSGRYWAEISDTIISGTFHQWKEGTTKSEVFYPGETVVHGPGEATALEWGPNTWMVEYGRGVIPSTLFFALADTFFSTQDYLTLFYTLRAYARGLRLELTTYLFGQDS
The description is as above. Conditions: remark: other sources report otherwise.

Consider “Binding immunoglobulin Protein (BiP), endogenous in N2a cells (from UniProt P20029 20-655)”, for which the binding entry in experiment [1] is given as “binds”.

B1: Nuclear factor erythroid-2 related factor 2 (NRF2), endogenous in N2a cells, Q60795 1-597 (protein)
chain: MMDLELPPPGLQSQQDMDLIDILWRQDIDLGVSREVFDFSQRQKDYELEKQKKLEKERQEQLQKEQEKAFFAQFQLDEETGEFLPIQPAQHIQTDTSGSASYSQVAHIPKQDALYFEDCMQLLAETFPFVDDHESLALDIPSHAESSVFTAPHQAQSLNSSLEAAMTDLSSIEQDMEQVWQELFSIPELQCLNTENKQLADTTAVPSPEATLTEMDSNYHFYSSISSLEKEVGNCGPHFLHGFEDSFSSILSTDDASQLTSLDSNPTLNTDFGDEFYSAFIAEPSDGGSMPSSAAISQSLSELLDGTIEGCDLSLCKAFNPKHAEGTMEFNDSDSGISLNTSPSRASPEHSVESSIYGDPPPGFSDSEMEELDSAPGSVKQNGPKAQPAHSPGDTVQPLSPAQGHSAPMRESQCENTTKKEVPVSPGHQKAPFTKDKHSSRLEAHLTRDELRAKALHIPFPVEKIINLPVDDFNEMMSKEQFNEAQLALIRDIRRRGKNKVAAQNCRKRKLENIVELEQDLGHLKDEREKLLREKGENDRNLHLLKRRLSTLYLEVFSMLRDEDGKPYSPSEYSLQQTRDGNVFLVPKSKKPDTKKN
Turning to B1, the binding entry in experiment [2] was “no binding”.
